Measured values reported in patent US20250179436A1, “HUMAN FATTY-LIVER MODEL CELLS” (PhoenixBio Co., Ltd., priority 2019, published 2025).
At least one compound was matched to its structure with a doubt left.

Tests used:
PXB-cells [1] = experiment: Screening test: total cholesterol and total neutral fat (triglyceride) in PXB-cells (Cholestest); type: cell-based, human; conditions: 2 days, PXB-cells pre-cultured 12 days in medium B (DMSO (+)), vs ethanol control
Description: Triglyceride in cells was measured by use of Cholestest (registered trademark) TG (Sekisui Medical Co., Ltd.) in accordance with the instruction by the manufacturer. More specifically, the cells were washed with PBS, and then, completely dewatered (stored at −80° C. until measurement). To each well containing the cells, 200 μL of TG enzyme solution (1) was added. A reaction was allowed to proceed while keeping the cells warm at 37° C. for 10 minutes (free glycerol was removed). Then, the cells were torn away by pipetting, transferred to a centrifuge tube and centrifuged at 10,000 rpm×10 minutes. Then, the supernatant (7.5 μL) was transferred to a 96-well microplate. To this, 68 μL of TG enzyme solution (1) was added and the microplate was kept warm at 37° C. for 10 minutes to remove completely free glycerol. Then, 25 μL of TG enzyme solution (2) was added and kept the plate warm at 37° C. for 10 minutes. The resultant reaction product was subjected to measurement of absorbance at 550 nm. The content of triglyceride was calculated based on HDL-C180A as the reference (triglyceride concentration of HDL-C180A was 52.26 mg/dL).
Intracellular cholesterol was measured by use of Cholestest (registered trademark) CHO (Sekisui Medical Co., Ltd.) in accordance with the instruction by the manufacturer. More specifically, the cells were washed with PBS, and then, completely dewatered (stored at −80° C. until measurement). To each well containing the cells, 200 μL of CHO enzyme solution (1) was added and kept the cells warm at 37° C. for 10 minutes. Then, the cells were torn away by pipetting, transferred to a centrifuge tube and centrifuged at 10,000 rpm×10 minutes. Then, the supernatant (15 μL) was transferred to a 96-well microplate. To this, 68 μL of CHO enzyme solution (1) was added and kept warm at 37° C. for 10 minutes. Subsequently, 25 μL of CHO enzyme solution (2) was added to the wells and kept the plate warm at 37° C. for 10 minutes. The resultant reaction product was subjected to measurement of absorbance at 550 nm. The content of cholesterol was calculated based on HDL-C180A as the standard ([…] concentration of HDL-C180A was 152.67 mg/dL).
PXB-cells were diluted with medium A. The diluted cell suspension (500 μL) was gently poured to individual wells of a culture plate. […]
Each test substance was suspended with ethanol and added in a predetermined amount to a PXB-cell culture, gently placed in an incubator (37° C., 5% CO2) and cultured for 2 days. After completion of culture, the total cholesterol and total neutral fat (triglyceride) in culture supernatant and in cells were measured in accordance with the methods described in the sections “Analysis of lipoprotein in culture supernatant” and “Analysis of lipoprotein in cells”. […]

PXB-cells [2] = experiment: Screening test: total cholesterol and total neutral fat (triglyceride) in culture supernatant of PXB-cells (LipoSEARCH); type: cell-based, human; conditions: 2 days, PXB-cells pre-cultured 12 days in medium B (DMSO (+)), vs ethanol control
Description: Lipoproteins contained in the culture supernatants of PXB-cells, HepG2 cells and HuH7 cells were analyzed by using LipoSEARCH (registered trademark) method (Skylight Biotech, Inc.).
After completion of the culture mentioned above, the medium used in the culture was removed and 500 μL of medium D for analysis was added. The culture plate was gently placed in an incubator (37° C., 5% CO2) and the cells were cultured for 2 days. Thereafter, the culture supernatant was recovered, lipoproteins contained in the culture supernatant (80 μL) were fractionated into 4 types of subgroups, CM, VLDL, LDL and HDL fractions, by gel filtration HPLC. Cholesterol and neutral fat (triglyceride) contained in individual fractions were quantified by online enzyme reactions. Concentration analysis was carried out in accordance with the computer program specifically developed by Skylight Biotech, Inc. Note that, in the enzymatic reaction, Diacolor Liquid TG-S (manufactured by Toyobo Co., Ltd.) was used. As standard sera for cholesterol and neutral fat (triglyceride) concentration in CM, VLDL, LDL and HDL, the sera manufactured by Kyowa Hakko Kirin Co., Ltd. were used.
PXB-cells were diluted with medium A. The diluted cell suspension (500 μL) was gently poured to individual wells of a culture plate. The plate was allowed to stand still for about 20 minutes until the cells were slightly in contact with the bottom surface of the wells and gently placed to an incubator (37° C., 5% CO2) to culture the cells. The following day of seeding, medium A was removed and 500 μL of medium B (DMSO (+)) was added. The plate was gently placed in an incubator (37° C., 5% CO2) and the cells were cultured for 5 days. Also, cells to which an antihyperlipidemic drug was administered were cultured for 12 days. After completion of culture, the cells were used in the following screening test.
As a test substance, a junsai extract (Oryza Oil&Fat Chemical Co., Ltd.) known as a lipid metabolism improver (U.S. Pat. No. 5,344,494) was used.
Each test substance was suspended with ethanol and added in a predetermined amount to a PXB-cell culture, gently placed in an incubator (37° C., 5% CO2) and cultured for 2 days. After completion of culture, the total cholesterol and total neutral fat (triglyceride) in culture supernatant and in cells were measured in accordance with the methods described in the sections “Analysis of lipoprotein in culture supernatant” and “Analysis of lipoprotein in cells”.
To a control sample, only the same amount of ethanol as used for suspending a test substance, was added.

Row | Compound | total cholesterol content in the cells (PXB-cells [1]; fenofibrate 5, 50, 500 μM) | total neutral fat (triglyceride) content in the cells (PXB-cells [1]; fenofibrate 5, 50, 500 μM) | total cholesterol content in the culture supernatant (PXB-cells [2]; fenofibrate 5, 50, 500 μM) | total neutral fat (triglyceride) content in the culture supernatant (PXB-cells [2]; fenofibrate 5, 50, 500 μM) | total cholesterol content in cells (PXB-cells [1]; simvastatin 0.1, 1, 10 μM) | total neutral fat (triglyceride) content in cells (PXB-cells [1]; simvastatin 0.1, 1, 10 μM) | total cholesterol content in the culture supernatants (PXB-cells [2]; simvastatin 0.1, 1, 10 μM) | total neutral fat (triglyceride) content in the culture supernatants (PXB-cells [2]; simvastatin 0.1, 1, 10 μM)
1 | CC(C)OC(=O)C(C)(C)Oc1ccc(C(=O)c2ccc(Cl)cc2)cc1 [fenofibrate] | no significant decrease | no significant decrease | decreased depending on the addition amount | decreased depending on the addition amount |  |  |  | 
2 | CCC(C)(C)C(=O)O[C@H]1C[C@@H](C)C=C2C=C[C@H](C)[C@H](CC[C@@H]3C[C@@H](O)CC(=O)O3)[C@H]21 [simvastatin] |  |  |  |  | no significant decrease | no significant decrease | decreased depending on the addition amount | no significant decrease
